Results: patent US7288256B1, “T cell epitopes of the major allergens from dermatophagoides (house dust mite)” (Merck Patent GmbH, priority 1991, dated 2007)
Part of at least one peptide drawing is inferred or uncertain, most often the ends. Some compounds share one wording; it may come from a single statement. Residues, ends and D or L forms follow the SMILES beside them.

Legend:
[1] = test system: Der p II primed T cell lines; assay: Secondary T cell proliferation assay, T cell lines primed in vitro with Der p II (Examples VIII, X, XI, XII); conditions: for response of Der p II primed T cells to Der f II peptides (cross-reactivity) / T cell reactivity of overlapping Der p II peptides: 26 positive experiments; for response of Der p II primed T cells to Der f II peptides (cross-reactivity): FIG. 12; for T cell reactivity of overlapping Der p II peptides: FIG. 9; for response of this patient to Der p II peptides: patient 348, primed with 20 μg/ml purified native Der p II, data not shown
[2] = test system: Der f II primed T cell lines; assay: Secondary T cell proliferation assay, T cell lines primed in vitro with Der f II (Examples IX, X, XI); assay type: cell-based, human; conditions: for T cell reactivity of overlapping Der f II peptides / response of Der f II primed T cells to Der p II peptides (cross-reactivity): 10 positive experiments; for T cell reactivity of overlapping Der f II peptides: FIG. 10; for response of T cells from this patient to Der f II peptides: patient 384, primed with purified recombinant Der f II, data not shown; for response of Der f II primed T cells to Der p II peptides (cross-reactivity): FIG. 11

| SMILES | response of Der p II primed T cells to Der f II peptides (cross-reactivity) [1] | T cell reactivity of overlapping Der f II peptides [2] | response of T cells from this patient to Der f II peptides [2] | T cell reactivity of overlapping Der p II peptides [1] | response of this patient to Der p II peptides [1] | response of Der f II primed T cells to Der p II peptides (cross-reactivity) [2] |
| --- | --- | --- | --- | --- | --- | --- |
| CC[C@H](C)[C@H](NC(=O)CNC(=O)[C@@H]1CCCN1C(=O)[C@@H](NC(=O)[C@H](CC(=O)O)NC(=O)[C@@H](NC(=O)[C@H](CCC(=O)O)NC(=O)[C@H](CC(C)C)NC(=O)CNC(=O)[C@H](CC(=O)O)NC(=O)[C@H](CC(C)C)NC(=O)[C@H](CO)NC(=O)[C@H](C)NC(=O)[C@H](CCCCN)NC(=O)[C@@H](NC(=O)[C@H](CCC(=O)O)NC(=O)[C@@H](NC(=O)[C@@H](N)CCCCN)[C@@H](C)CC)[C@@H](C)CC)[C@@H](C)CC)C(C)C)C(=O)N[C@@H](CC(=O)O)C(=O)N[C@H](C(=O)N[C@@H](CC(N)=O)C(=O)N[C@@H](C)C(=O)N[C@@H](CS)C(=O)N[C@@H](Cc1c[nH]cn1)C(=O)N[C@@H](Cc1ccccc1)C(=O)N[C@@H](CCSC)C(=O)N[C@@H](CCCCN)C(=O)O)[C@@H](C)O [DF II-15] (H-KIEIKASLDGLEIDVPGIDTNACHFMK-OH; N-terminus and C-terminus assumed) | respond significantly | significant areas of T cell reactivity | respond well |  |  |  |
| CC[C@H](C)[C@H](NC(=O)[C@H](CCCCN)NC(=O)[C@@H]1CCCN1C(=O)[C@@H](NC(=O)[C@H](CC(N)=O)NC(=O)[C@H](Cc1c[nH]c2ccccc12)NC(=O)[C@@H](NC(=O)[C@H](Cc1ccc(O)cc1)NC(=O)[C@H](CCCCN)NC(=O)[C@H](C)NC(=O)[C@H](CC(=O)O)NC(=O)[C@H](Cc1ccc(O)cc1)NC(=O)[C@H](CCC(N)=O)NC(=O)[C@H](CCC(N)=O)NC(=O)CNC(=O)[C@H](CCCCN)NC(=O)[C@@H](NC(=O)[C@H](CC(C)C)NC(=O)[C@@H]1CCCN1C(=O)[C@@H](N)CS)C(C)C)[C@@H](C)O)C(C)C)C(=O)N[C@@H](C)C(=O)N1CCC[C@H]1C(=O)N[C@@H](CCCCN)C(=O)N[C@@H](CO)C(=O)N[C@@H](CCC(=O)O)C(=O)N[C@@H](CC(N)=O)C(=O)N[C@H](C(=O)O)C(C)C [DF II-17] (H-CPLVKGQQYDAKYTWNVPKIAPKSENV-OH; N-terminus and C-terminus assumed) | respond significantly | significant areas of T cell reactivity |  |  |  |  |
| CC[C@H](C)[C@H](NC(=O)[C@H](CCC(=O)O)NC(=O)[C@H](CC(N)=O)NC(=O)[C@H](CC(N)=O)NC(=O)[C@H](C)NC(=O)[C@H](CS)NC(=O)[C@H](CC(=O)O)NC(=O)[C@H](CCCCN)NC(=O)[C@@H](NC(=O)[C@H](CC(=O)O)NC(=O)[C@@H](NC(=O)[C@H](CCC(N)=O)NC(=O)[C@@H](N)CC(=O)O)C(C)C)C(C)C)C(=O)N[C@@H](CCCCN)C(=O)N[C@@H](CCCCN)C(=O)N[C@H](C(=O)N[C@@H](CCSC)C(=O)N[C@H](C(=O)N[C@@H](CC(=O)O)C(=O)NCC(=O)O)C(C)C)C(C)C [DF II-1] (H-DQVDVKDCANNEIKKVMVDG-OH; N-terminus and C-terminus assumed) | respond significantly | significant areas of T cell reactivity | respond well |  |  |  |
| CC[C@H](C)[C@H](NC(=O)[C@H](CCC(=O)O)NC(=O)[C@H](Cc1c[nH]cn1)NC(=O)[C@H](CC(N)=O)NC(=O)[C@H](C)NC(=O)[C@H](CS)NC(=O)[C@H](CC(=O)O)NC(=O)[C@H](CCCCN)NC(=O)[C@@H](NC(=O)[C@H](CC(=O)O)NC(=O)[C@@H](NC(=O)[C@H](CCC(N)=O)NC(=O)[C@@H](N)CC(=O)O)C(C)C)C(C)C)C(=O)N[C@@H](CCCCN)C(=O)N[C@@H](CCCCN)C(=O)N[C@H](C(=O)N[C@@H](CC(C)C)C(=O)N[C@H](C(=O)N1CCC[C@H]1C(=O)NCC(=O)O)C(C)C)C(C)C [DP II-1] (H-DQVDVKDCANHEIKKVLVPG-OH; N-terminus and C-terminus assumed) |  |  |  | significant T cell reactivity | responds well | respond significantly |
| CC[C@H](C)[C@H](NC(=O)[C@H](C)NC(=O)[C@H](CS)NC(=O)[C@H](C)NC(=O)[C@H](CC(C)C)NC(=O)[C@@H](NC(=O)CNC(=O)[C@H](CC(N)=O)NC(=O)[C@H](CC(=O)O)NC(=O)CNC(=O)[C@@H](NC(=O)[C@H](CC(C)C)NC(=O)[C@H](CCCCN)NC(=O)[C@@H](NC(=O)[C@@H](NC(=O)[C@@H](NC(=O)[C@@H](N)C(C)C)C(C)C)[C@@H](C)O)C(C)C)C(C)C)C(C)C)C(=O)N[C@@H](C)C(=O)N[C@H](C(=O)N[C@@H](Cc1c[nH]cn1)C(=O)N[C@@H](C)C(=O)N[C@@H](CCCCN)C(=O)N[C@H](C(=O)N[C@@H](CCCNC(=N)N)C(=O)N[C@@H](CC(=O)O)C(=O)O)[C@@H](C)CC)[C@@H](C)O [DF II-19.1] (H-VVTVKLVGDNGVLACAIATHAKIRD-OH; N-terminus and C-terminus assumed) | respond significantly | significant areas of T cell reactivity | respond well |  |  |  |
| CC[C@H](C)[C@H](NC(=O)[C@H](CCCCN)NC(=O)[C@@H]1CCCN1C(=O)[C@@H](NC(=O)[C@H](CC(N)=O)NC(=O)[C@H](Cc1c[nH]c2ccccc12)NC(=O)[C@@H](NC(=O)[C@H](Cc1ccc(O)cc1)NC(=O)[C@H](CCCCN)NC(=O)[C@@H](NC(=O)[C@H](CC(=O)O)NC(=O)[C@H](Cc1ccc(O)cc1)NC(=O)[C@H](CCC(N)=O)NC(=O)[C@H](CCC(N)=O)NC(=O)CNC(=O)[C@H](CCCCN)NC(=O)[C@@H](NC(=O)[C@H](CC(C)C)NC(=O)[C@@H]1CCCN1C(=O)[C@@H](N)CS)C(C)C)[C@@H](C)CC)[C@@H](C)O)C(C)C)C(=O)N[C@@H](C)C(=O)N1CCC[C@H]1C(=O)N[C@@H](CCCCN)C(=O)N[C@@H](CO)C(=O)N[C@@H](CCC(=O)O)C(=O)N[C@@H](CC(N)=O)C(=O)N[C@H](C(=O)O)C(C)C [DP II-7] (H-CPLVKGQQYDIKYTWNVPKIAPKSENV-OH; N-terminus and C-terminus assumed) |  |  |  | significant T cell reactivity | responds well | respond significantly |
| CC[C@H](C)[C@H](NC(=O)[C@H](CS)NC(=O)[C@@H]1CCCN1C(=O)[C@H](CC(=O)O)NC(=O)[C@H](CO)NC(=O)CNC(=O)[C@@H](N)Cc1c[nH]cn1)C(=O)N[C@H](C(=O)N[C@@H](Cc1c[nH]cn1)C(=O)N[C@@H](CCCNC(=N)N)C(=O)NCC(=O)N[C@@H](CCCCN)C(=O)N1CCC[C@H]1C(=O)N[C@@H](Cc1ccccc1)C(=O)N[C@H](C(=O)N[C@@H](CC(C)C)C(=O)N[C@@H](CCC(=O)O)C(=O)N[C@@H](C)C(=O)N[C@@H](CC(C)C)C(=O)N[C@@H](Cc1ccccc1)C(=O)N[C@@H](CC(=O)O)C(=O)N[C@@H](C)C(=O)N[C@@H](CC(N)=O)C(=O)N[C@@H](CCC(N)=O)C(=O)N[C@@H](CC(N)=O)C(=O)N[C@H](C(=O)N[C@@H](CCCCN)C(=O)N[C@H](C(=O)N[C@@H](C)C(=O)O)[C@@H](C)O)[C@@H](C)O)[C@@H](C)O)[C@@H](C)CC [DF II-13.1] (H-HGSDPCIIHRGKPFTLEALFDANQNTKTA-OH; N-terminus and C-terminus assumed) |  | significant areas of T cell reactivity |  |  |  |  |
| CC[C@H](C)[C@H](NC(=O)[C@H](CCC(=O)O)NC(=O)[C@@H](NC(=O)[C@H](CCCCN)NC(=O)[C@H](C)NC(=O)[C@@H](NC(=O)[C@H](CCCCN)NC(=O)[C@@H](NC(=O)[C@H](CC(N)=O)NC(=O)[C@H](CCC(N)=O)NC(=O)[C@H](CC(N)=O)NC(=O)[C@H](C)NC(=O)[C@H](CC(=O)O)NC(=O)[C@H](Cc1ccccc1)NC(=O)[C@H](CC(C)C)NC(=O)[C@H](C)NC(=O)[C@H](CCC(=O)O)NC(=O)[C@H](CC(C)C)NC(=O)[C@@H](N)[C@@H](C)O)[C@@H](C)O)[C@@H](C)O)[C@@H](C)CC)C(=O)N[C@@H](CCCCN)C(=O)N[C@@H](C)C(=O)N[C@@H](CO)C(=O)N[C@@H](CC(C)C)C(=O)N[C@@H](CC(=O)O)C(=O)NCC(=O)O [DF II-4.5] (H-TLEALFDANQNTKTAKIEIKASLDG-OH; N-terminus and C-terminus assumed) | respond significantly | significant areas of T cell reactivity | respond well |  |  |  |
| CC[C@H](C)[C@H](NC(=O)CNC(=O)[C@@H]1CCCN1C(=O)[C@@H](NC(=O)[C@H](CC(=O)O)NC(=O)[C@@H](NC(=O)[C@H](CCC(=O)O)NC(=O)[C@@H](N)CC(C)C)[C@@H](C)CC)C(C)C)C(=O)N[C@@H](CC(=O)O)C(=O)N[C@H](C(=O)N[C@@H](CC(N)=O)C(=O)N[C@@H](C)C(=O)N[C@@H](CS)C(=O)N[C@@H](Cc1c[nH]cn1)C(=O)N[C@@H](Cc1ccccc1)C(=O)N[C@@H](CCSC)C(=O)N[C@@H](CCCCN)C(=O)N[C@@H](CS)C(=O)N1CCC[C@H]1C(=O)N[C@@H](CC(C)C)C(=O)N[C@H](C(=O)N[C@@H](CCCCN)C(=O)NCC(=O)N[C@@H](CCC(N)=O)C(=O)N[C@@H](CCC(N)=O)C(=O)N[C@@H](Cc1ccc(O)cc1)C(=O)O)C(C)C)[C@@H](C)O [DF II-16] (H-LEIDVPGIDTNACHFMKCPLVKGQQY-OH; N-terminus and C-terminus assumed) |  |  | respond well |  |  |  |
